According to patent US20160138036A1:
Results are given in words; binding and its absence hold for the method and conditions named. Binding seen in cells or lysates may run through a third protein. Some entries that bind do so weakly or less than the wild type.

Protein sequences, listed by entry. Tags and fused reporters are not part of them. Lines headed by an entry give the natural chain unless they say otherwise; changes in a name come on top.
UniProt O64645: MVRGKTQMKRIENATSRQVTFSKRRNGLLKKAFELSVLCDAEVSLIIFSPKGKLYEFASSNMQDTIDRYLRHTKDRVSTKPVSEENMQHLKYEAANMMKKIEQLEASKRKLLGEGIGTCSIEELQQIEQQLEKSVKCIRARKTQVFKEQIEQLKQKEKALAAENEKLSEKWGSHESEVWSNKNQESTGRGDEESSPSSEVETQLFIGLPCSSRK

Molecular target: recombinant maltose-binding protein-SOC1 (MBP-SOC1) fusion (Arabidopsis thaliana) (UniProt O64645)
Experiment: in vitro pull-down: MBP-SOC1 on amylose resin, 35S-labeled in vitro translated polypeptide, autoradiography

- binding: binds
Substance: SOC1 (SUPPRESSOR OF OVEREXPRESSOR OF CONSTANS 1) transcription factor (from UniProt O64645 1-214)
